The supplement of paper PMC10849652
The list shows a part of the results.

By UniProt entry, the sequences of proteins in these tests, tags left out. Where a name states a change or a piece, a line headed by the entry shows the natural chain unless it says otherwise.
UniProt P08621, whole entry, looked up: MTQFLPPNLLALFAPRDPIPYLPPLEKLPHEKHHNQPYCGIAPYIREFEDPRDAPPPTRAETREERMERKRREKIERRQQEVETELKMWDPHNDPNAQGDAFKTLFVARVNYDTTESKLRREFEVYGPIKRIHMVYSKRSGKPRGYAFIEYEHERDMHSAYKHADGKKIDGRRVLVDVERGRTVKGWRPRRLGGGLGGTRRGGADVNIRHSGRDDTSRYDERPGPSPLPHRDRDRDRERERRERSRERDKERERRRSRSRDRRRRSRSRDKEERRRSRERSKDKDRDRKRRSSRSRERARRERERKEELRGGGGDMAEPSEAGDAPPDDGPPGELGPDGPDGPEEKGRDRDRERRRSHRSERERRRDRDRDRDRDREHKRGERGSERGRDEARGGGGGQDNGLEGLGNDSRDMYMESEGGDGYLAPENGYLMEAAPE
UniProt P18583: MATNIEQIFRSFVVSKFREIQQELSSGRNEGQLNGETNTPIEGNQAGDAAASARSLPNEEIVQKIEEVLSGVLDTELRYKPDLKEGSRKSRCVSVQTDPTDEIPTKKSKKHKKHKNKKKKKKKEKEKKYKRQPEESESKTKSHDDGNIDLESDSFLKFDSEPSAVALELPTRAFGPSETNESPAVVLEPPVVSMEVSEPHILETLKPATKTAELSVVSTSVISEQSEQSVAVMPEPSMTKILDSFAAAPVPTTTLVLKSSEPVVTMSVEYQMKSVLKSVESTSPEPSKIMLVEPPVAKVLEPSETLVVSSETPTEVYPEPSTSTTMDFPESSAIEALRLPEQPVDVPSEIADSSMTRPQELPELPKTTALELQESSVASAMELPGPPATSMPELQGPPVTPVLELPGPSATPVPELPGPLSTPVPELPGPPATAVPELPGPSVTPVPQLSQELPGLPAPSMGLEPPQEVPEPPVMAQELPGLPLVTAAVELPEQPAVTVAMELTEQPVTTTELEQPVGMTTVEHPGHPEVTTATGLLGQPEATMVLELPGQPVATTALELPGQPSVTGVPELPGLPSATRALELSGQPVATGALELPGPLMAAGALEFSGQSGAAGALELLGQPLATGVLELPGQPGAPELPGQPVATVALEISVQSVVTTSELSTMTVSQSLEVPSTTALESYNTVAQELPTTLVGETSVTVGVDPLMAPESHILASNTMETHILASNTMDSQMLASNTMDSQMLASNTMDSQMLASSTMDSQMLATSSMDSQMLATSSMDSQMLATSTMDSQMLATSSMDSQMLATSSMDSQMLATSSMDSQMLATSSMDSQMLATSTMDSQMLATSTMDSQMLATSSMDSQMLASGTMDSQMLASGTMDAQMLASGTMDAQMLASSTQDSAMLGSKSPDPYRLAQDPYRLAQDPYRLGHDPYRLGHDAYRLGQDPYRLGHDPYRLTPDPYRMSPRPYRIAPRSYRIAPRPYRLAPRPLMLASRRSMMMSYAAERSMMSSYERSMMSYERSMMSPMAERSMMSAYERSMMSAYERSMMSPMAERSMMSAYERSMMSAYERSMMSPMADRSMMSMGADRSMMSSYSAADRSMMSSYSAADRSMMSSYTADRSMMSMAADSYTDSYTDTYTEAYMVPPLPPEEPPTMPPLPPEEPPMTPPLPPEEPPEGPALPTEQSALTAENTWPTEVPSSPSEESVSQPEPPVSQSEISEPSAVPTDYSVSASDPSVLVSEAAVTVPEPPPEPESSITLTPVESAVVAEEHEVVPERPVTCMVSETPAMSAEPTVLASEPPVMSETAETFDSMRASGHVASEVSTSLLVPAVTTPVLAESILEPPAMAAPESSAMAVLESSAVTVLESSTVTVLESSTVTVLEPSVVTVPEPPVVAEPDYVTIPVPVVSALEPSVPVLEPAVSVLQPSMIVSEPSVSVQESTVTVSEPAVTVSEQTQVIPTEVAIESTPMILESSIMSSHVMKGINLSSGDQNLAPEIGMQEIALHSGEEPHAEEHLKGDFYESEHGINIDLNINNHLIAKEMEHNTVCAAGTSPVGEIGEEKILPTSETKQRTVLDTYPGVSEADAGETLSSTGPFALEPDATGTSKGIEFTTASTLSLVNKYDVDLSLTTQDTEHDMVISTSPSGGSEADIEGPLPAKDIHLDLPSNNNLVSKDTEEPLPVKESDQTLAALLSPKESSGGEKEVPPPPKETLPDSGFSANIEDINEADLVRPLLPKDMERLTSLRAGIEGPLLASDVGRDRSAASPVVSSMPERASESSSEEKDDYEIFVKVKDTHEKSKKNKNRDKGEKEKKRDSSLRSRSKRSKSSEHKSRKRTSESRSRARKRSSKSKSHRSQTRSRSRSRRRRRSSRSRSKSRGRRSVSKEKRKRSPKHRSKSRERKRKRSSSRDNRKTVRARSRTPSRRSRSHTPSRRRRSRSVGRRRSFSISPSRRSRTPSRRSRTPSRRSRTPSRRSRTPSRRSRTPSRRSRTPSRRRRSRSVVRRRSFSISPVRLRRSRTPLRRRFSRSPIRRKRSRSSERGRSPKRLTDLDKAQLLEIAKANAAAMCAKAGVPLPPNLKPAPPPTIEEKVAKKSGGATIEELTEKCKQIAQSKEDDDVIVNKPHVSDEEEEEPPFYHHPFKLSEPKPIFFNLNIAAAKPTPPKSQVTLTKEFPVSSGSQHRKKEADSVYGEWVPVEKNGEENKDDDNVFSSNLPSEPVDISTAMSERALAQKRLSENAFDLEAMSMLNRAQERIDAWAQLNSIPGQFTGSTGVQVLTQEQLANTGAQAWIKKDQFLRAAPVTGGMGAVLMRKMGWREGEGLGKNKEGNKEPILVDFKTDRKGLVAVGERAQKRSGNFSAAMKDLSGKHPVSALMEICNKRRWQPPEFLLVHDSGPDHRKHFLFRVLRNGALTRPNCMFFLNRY
UniProt Q9NZC9: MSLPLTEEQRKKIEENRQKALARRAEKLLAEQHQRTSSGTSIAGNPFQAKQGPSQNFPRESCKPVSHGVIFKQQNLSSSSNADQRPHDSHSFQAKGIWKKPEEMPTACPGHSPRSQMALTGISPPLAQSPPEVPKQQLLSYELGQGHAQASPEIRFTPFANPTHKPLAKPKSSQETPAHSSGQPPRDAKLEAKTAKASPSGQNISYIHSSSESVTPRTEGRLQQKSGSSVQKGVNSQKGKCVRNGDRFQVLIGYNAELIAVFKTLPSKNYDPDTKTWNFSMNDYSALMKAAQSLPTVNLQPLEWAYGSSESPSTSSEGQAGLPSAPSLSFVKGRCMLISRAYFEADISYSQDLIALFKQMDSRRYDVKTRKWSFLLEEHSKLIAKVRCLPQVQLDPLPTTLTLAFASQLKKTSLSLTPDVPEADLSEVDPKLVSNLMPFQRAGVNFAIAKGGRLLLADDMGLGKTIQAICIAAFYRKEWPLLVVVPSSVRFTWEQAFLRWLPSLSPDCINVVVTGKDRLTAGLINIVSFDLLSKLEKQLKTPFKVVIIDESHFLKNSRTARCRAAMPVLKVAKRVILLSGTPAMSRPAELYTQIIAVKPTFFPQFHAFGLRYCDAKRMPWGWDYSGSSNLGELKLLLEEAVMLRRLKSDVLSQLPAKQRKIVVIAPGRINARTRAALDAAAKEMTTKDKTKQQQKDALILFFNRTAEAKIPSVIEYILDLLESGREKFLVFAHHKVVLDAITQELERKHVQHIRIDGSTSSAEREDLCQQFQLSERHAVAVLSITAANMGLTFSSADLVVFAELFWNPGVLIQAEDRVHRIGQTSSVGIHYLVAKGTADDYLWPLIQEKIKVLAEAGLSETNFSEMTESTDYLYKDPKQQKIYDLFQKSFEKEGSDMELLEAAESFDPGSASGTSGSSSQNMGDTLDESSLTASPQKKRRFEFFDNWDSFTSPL
UniProt Q92540: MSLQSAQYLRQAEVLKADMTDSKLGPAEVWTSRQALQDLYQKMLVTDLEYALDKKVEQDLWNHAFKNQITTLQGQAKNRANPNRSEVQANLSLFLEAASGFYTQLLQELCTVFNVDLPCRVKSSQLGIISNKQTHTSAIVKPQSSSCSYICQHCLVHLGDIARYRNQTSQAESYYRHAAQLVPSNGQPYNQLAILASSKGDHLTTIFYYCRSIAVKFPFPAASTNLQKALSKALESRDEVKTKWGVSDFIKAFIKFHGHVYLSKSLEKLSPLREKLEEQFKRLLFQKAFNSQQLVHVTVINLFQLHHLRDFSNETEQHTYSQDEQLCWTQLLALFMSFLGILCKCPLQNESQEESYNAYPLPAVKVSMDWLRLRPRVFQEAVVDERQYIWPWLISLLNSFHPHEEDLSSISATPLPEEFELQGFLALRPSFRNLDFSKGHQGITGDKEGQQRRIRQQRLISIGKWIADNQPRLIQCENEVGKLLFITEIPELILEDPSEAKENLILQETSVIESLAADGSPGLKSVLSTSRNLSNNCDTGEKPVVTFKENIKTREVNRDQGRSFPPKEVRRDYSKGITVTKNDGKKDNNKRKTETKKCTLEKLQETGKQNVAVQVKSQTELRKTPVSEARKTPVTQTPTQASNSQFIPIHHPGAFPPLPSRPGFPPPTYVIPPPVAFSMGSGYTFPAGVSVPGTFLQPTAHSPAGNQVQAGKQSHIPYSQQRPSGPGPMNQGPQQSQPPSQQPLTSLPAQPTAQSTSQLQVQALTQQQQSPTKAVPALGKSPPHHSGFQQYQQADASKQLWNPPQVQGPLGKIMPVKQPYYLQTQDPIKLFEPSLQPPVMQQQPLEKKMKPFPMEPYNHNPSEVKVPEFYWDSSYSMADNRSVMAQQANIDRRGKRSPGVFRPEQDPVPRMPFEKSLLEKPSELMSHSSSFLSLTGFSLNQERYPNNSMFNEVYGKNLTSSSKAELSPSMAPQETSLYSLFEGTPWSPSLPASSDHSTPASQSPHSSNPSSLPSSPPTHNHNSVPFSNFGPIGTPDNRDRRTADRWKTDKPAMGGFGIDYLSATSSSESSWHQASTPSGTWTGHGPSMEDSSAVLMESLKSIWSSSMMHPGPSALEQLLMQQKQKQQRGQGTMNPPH
UniProt P62314, whole entry, looked up: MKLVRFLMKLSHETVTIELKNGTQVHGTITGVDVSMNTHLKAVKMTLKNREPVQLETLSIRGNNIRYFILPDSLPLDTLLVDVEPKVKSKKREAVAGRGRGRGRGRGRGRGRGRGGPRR
UniProt P62318, whole entry, looked up: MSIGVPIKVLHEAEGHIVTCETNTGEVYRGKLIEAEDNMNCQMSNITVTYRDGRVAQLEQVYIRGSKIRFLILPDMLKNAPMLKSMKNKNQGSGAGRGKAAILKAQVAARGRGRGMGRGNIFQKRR
UniProt Q9BX66: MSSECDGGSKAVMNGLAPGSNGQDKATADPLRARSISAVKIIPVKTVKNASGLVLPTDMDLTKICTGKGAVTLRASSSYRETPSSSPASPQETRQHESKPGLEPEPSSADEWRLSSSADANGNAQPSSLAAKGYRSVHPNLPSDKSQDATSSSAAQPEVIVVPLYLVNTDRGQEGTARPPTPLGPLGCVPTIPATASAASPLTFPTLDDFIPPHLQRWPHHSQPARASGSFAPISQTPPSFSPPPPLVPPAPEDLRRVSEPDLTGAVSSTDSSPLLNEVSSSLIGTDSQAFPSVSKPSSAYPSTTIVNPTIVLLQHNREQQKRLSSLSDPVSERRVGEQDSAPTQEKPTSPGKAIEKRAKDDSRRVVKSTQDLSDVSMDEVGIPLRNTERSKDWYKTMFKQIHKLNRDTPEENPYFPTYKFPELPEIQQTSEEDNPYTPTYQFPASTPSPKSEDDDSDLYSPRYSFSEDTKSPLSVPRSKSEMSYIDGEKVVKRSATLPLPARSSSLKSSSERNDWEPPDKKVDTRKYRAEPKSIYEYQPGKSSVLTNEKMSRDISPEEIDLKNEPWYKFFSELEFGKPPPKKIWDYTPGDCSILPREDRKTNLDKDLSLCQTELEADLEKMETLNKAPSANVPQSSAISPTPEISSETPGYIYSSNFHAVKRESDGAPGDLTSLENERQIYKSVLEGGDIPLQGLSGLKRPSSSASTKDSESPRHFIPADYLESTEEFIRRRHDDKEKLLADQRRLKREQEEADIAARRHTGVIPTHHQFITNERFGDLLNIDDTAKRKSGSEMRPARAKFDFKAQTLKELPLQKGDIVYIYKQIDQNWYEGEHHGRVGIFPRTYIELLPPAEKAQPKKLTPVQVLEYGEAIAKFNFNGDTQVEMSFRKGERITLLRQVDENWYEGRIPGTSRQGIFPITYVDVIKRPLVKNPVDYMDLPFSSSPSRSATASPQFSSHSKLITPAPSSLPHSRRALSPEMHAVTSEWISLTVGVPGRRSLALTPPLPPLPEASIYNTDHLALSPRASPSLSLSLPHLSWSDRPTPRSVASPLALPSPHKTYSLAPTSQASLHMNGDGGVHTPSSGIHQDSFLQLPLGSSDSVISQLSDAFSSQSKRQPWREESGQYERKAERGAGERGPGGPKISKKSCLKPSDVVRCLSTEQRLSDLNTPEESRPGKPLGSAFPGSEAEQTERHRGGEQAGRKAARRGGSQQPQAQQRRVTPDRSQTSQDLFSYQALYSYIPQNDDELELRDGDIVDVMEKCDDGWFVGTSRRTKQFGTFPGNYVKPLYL

Legend:
Test in all cases: log2 fold change, soluble protein after heating vs DMSO (PISA); higher = thermal stabilisation; K562 lysate, 10 uM; active = over 0.2 and 3.5 SD of the protein, either way, in both replicates (recomputed)
[1] = compound: C#Cc1cccc(Nc2ncnc3cc(OCCOC)c(OCCOC)cc23)c1 [erlotinib]
Method in brief: (§1)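 Quantification was by TMTpro 16plex LC-MS/MS with equalised channel sums, applied to the supernatant after 21,000xg for 90 min. Samples were crude K562 extract at 1 mg/mL protein in PBS pH 7.4 with 1 mM MgCl2, treated with 10 μM compound for 30 min, heated for 3 min across 48°C-58°C, pooled and brought to 0.5% NP-40 at 4°C. Values are log-two fold changes in thermal stability relative to solvent controls, from duplicates.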

[2] = compound: C/C(=N\NC(=O)C1=CC(=CC=C1)S(=O)(=O)N2CCOCC2)/C3=C(C=CC(=C3)Cl)O
Method in brief: as §1

[3] = compound: C1=CC(=CC=C1C2=NC3=C(N2)C=C(C=C3)C(=O)N)OC4=CC=C(C=C4)Cl
Method in brief: as §1

[4] = compound: C1=CC2=C(C=CC(=C2)/C=C\3/C(=O)NC(=NCC4=CC=CS4)S3)N=C1
Method in brief: as §1

[5] = compound: C1=CC2=NC=CN=C2C=C1/C=C/3\C(=O)NC(=O)S3
Method in brief: as §1

[6] = compound: C1=CC=C(C=C1)C2=NC(=C(N2)C3=CC=NC=C3)C4=CC(=C(C=C4)Cl)O
Method in brief: as §1

[7] = compound: C1=CC=C2C(=C1)C3=NNC4=CC=CC(=C43)C2=O
Method in brief: as §1

[8] = compound: C1CCN(C1)C(=O)NC2=CC=CC(=C2)NC3=NC=C(C(=N3)NCCC4=CN=CN4)Br
Method in brief: as §1

[9] = compound: C1CN(CCC1(CC2=CC=C(C=C2)Cl)N)C3=NC=NC4=C3C=CN4
Method in brief: as §1

[10] = compound: C1COCCN1CCN2C3=CC=CC=C3N=C2NC(=O)C4=CC(=CC=C4)[N+](=O)[O-] [IRAK-1-4 Inhibitor I]
Method in brief: as §1

[11] = compound: C=CC(=O)N1CCC[C@@H](n2nc(-c3ccc(Oc4ccccc4)cc3)c3c(N)ncnc32)C1 [ibrutinib]
Method in brief: as §1

[12] = compound: CC(=O)c1cnc2ccc(-c3cc(Cl)c(O)c(Cl)c3)nc2c1N[C@H]1CC[C@H](CN(C)C)CC1
Method in brief: as §1

[13] = compound: CC(C)(C)Cn1c(N)nc2ccc(-c3[nH]c(C(C)(C)C)nc3-c3ccc(F)cc3)nc21 [ralimetinib]
Method in brief: as §1

[14] = compound: CC(C)(O)CC(=O)NCCn1ccc2ncnc(Nc3ccc(Oc4cccc(C(F)(F)F)c4)c(Cl)c3)c21
Method in brief: as §1

[15] = compound: CC(C)C1=C2N=C(C=C(N2N=C1)NCC3=CC=CC=C3)NCCCCCCN
Method in brief: as §1

[16] = compound: CC1=C(C(CC(=O)N1)C2=CC=C(C=C2)C(F)(F)F)C(=O)NC3=C(C=C4C(=C3)C=NN4)F
Method in brief: as §1

[17] = compound: CC1=C(C2=C(C=C1)C(=O)C3=CC=CC=C3N2CCCN)C
Method in brief: as §1

[18] = compound: CC1=C(C=C(C=C1)NC(=O)C2=CC(=CC=C2)C(C)(C)C#N)NC3=CC4=C(C=C3)N=CN(C4=O)C
Method in brief: as §1

[19] = compound: CC1=C(C=C(C=C1)NC(=O)C2=CC(=CC=C2)N(C)C)NC(=O)C3=CC=C(C=C3)O
Method in brief: as §1

[20] = compound: CC1=CC=C(C=C1)SC2=C3C=C(SC3=CN=C2)C(=O)N
Method in brief: as §1

Measured: log2 fold change

SMYD2 (UniProt Q9NRG4)
inactive: [1] 0.021 | [2] 0.033 | [3] -0.015 | [4] 0.036 | [5] -0.012 | [6] -0.044 | [7] -0.029 | [8] 0.013 | [9] 0.022 | [10] -0.005 | [11] 0.05 | [12] 0 | [13] -0.009 | [14] 0 | [15] 0.076 | [16] 0.012 | [17] -0.027 | [18] -0.006 | [19] -0.027 | [20] -0.009

SNRNP70 (UniProt P08621)
inactive: [1] -0.025 | [2] 0.027 | [3] 0.002 | [4] 0.031 | [5] 0.011 | [6] -0.013 | [7] 0.037 | [8] -0.01 | [9] -0.027 | [10] 0 | [11] -0.034 | [12] -0.031 | [13] -0.015 | [14] -0.023 | [15] 0.034 | [16] -0.032 | [17] -0.037 | [18] -0.005 | [19] -0.006 | [20] 0

SON isoform 9 (UniProt P18583)
inactive: [1] 0.028 | [2] 0.104 | [3] -0.054 | [4] 0 | [5] -0.066 | [6] -0.022 | [7] -0.028 | [8] 0.023 | [9] 0.005 | [10] 0.031 | [11] 0.075 | [12] -0.023 | [13] 0.015 | [14] 0.018 | [15] 0.006 | [16] 0.003 | [17] -0.058 | [18] -0.003 | [19] 0.003 | [20] 0.006

SMARCAL1 (UniProt Q9NZC9)
inactive: [1] 0.048 | [2] 0.019 | [3] 0.06 | [4] -0.002 | [5] -0.176 | [6] 0.062 | [7] -0.032 | [8] -0.014 | [9] 0.036 | [10] -0.066 | [11] 0.071 | [12] -0.147 | [13] 0.038 | [14] -0.023 | [15] -0.032 | [16] 0.015 | [17] -0.151 | [18] -0.044 | [19] -0.022 | [20] -0.191

SMU1 (UniProt Q2TAY7)
inactive: [1] 0.005 | [2] -0.014 | [3] -0.004 | [4] 0.019 | [5] 0.027 | [6] -0.009 | [7] 0.013 | [8] -0.018 | [9] -0.031 | [10] 0.002 | [11] 0.009 | [12] 0.004 | [13] -0.008 | [14] 0.011 | [15] 0.006 | [16] 0 | [17] 0.009 | [18] 0.016 | [19] 0.022 | [20] 0.008

SNX6, A0A0A0MRI2
inactive: [1] 0.012 | [2] 0.056 | [3] -0.029 | [4] 0.04 | [5] -0.028 | [6] 0.013 | [7] -0.073 | [8] 0.024 | [9] -0.047 | [10] -0.013 | [11] -0.034 | [12] 0 | [13] -0.005 | [14] -0.03 | [15] -0.011 | [16] -0.032 | [17] -0.001 | [18] 0.018 | [19] 0.039 | [20] -0.004

SMARCB1 (UniProt Q12824)
inactive: [1] -0.033 | [2] -0.099 | [3] 0.003 | [4] 0.021 | [5] -0.019 | [6] -0.025 | [7] -0.011 | [8] -0.057 | [9] 0.018 | [10] 0.057 | [11] 0.036 | [12] 0.024 | [13] 0.011 | [14] 0.014 | [15] 0.006 | [16] 0.028 | [17] -0.03 | [18] 0.013 | [19] -0.004 | [20] 0.054

SMARCAD1 isoform 2 (UniProt Q9H4L7)
inactive: [1] 0 | [2] 0.022 | [3] -0.039 | [4] 0.023 | [5] -0.019 | [6] 0.041 | [7] -0.052 | [8] -0.051 | [9] 0.003 | [10] -0.006 | [11] 0.006 | [12] -0.021 | [13] 0.022 | [14] -0.016 | [15] 0.007 | [16] 0.008 | [17] 0.012 | [18] 0.021 | [19] 0.014 | [20] -0.022

SMG7 (UniProt Q92540)
inactive: [1] 0.007 | [2] -0.03 | [3] -0.022 | [4] -0.058 | [5] -0.066 | [6] -0.047 | [7] -0.032 | [8] -0.077 | [9] -0.01 | [10] -0.011 | [11] 0.019 | [12] 0.041 | [13] -0.036 | [14] -0.13 | [15] 0.066 | [16] -0.02 | [17] -0.01 | [18] -0.281 | [19] 0.047 | [20] 0.03

SNRPD1 (UniProt P62314)
inactive: [1] -0.01 | [2] 0.031 | [3] 0.007 | [4] 0.001 | [5] 0.033 | [6] 0.005 | [7] -0.024 | [8] -0.004 | [9] 0.009 | [10] 0.065 | [11] -0.003 | [12] -0.017 | [13] 0.021 | [14] -0.071 | [15] 0.017 | [16] 0.028 | [17] -0.008 | [18] 0.009 | [19] -0.066 | [20] 0.005

Reprinted from the entries so far (2 entries):
SON isoform 9 (UniProt P18583)
inactive: [1] 0.028 | [2] 0.104 | [3] -0.054 | [4] 0 | [5] -0.066 | [6] -0.022 | [7] -0.028 | [8] 0.023 | [9] 0.005 | [10] 0.031 | [11] 0.075 | [12] -0.023 | [13] 0.015 | [14] 0.018 | [15] 0.006 | [16] 0.003 | [17] -0.058 | [18] -0.003 | [19] 0.003 | [20] 0.006

SMARCAL1 (UniProt Q9NZC9)
inactive: [1] 0.048 | [2] 0.019 | [3] 0.06 | [4] -0.002 | [5] -0.176 | [6] 0.062 | [7] -0.032 | [8] -0.014 | [9] 0.036 | [10] -0.066 | [11] 0.071 | [12] -0.147 | [13] 0.038 | [14] -0.023 | [15] -0.032 | [16] 0.015 | [17] -0.151 | [18] -0.044 | [19] -0.022 | [20] -0.191

Following part:

SNRPD3 (UniProt P62318)
inactive: [1] 0.017 | [2] 0.021 | [3] 0.016 | [4] -0.057 | [5] 0.013 | [6] -0.013 | [7] 0.033 | [8] 0.019 | [9] 0.044 | [10] 0.026 | [11] -0.033 | [12] 0.035 | [13] 0.067 | [14] -0.018 | [15] -0.05 | [16] 0.017 | [17] 0.019 | [18] -0.012 | [19] -0.004 | [20] -0.008

SOS1 (UniProt Q07889)
inactive: [1] 0.103 | [2] 0.104 | [3] 0.126 | [4] -0.009 | [5] -0.01 | [6] -0.045 | [7] -0.074 | [8] -0.038 | [9] -0.026 | [10] 0.024 | [11] 0.044 | [12] -0.004 | [13] 0 | [14] -0.082 | [15] 0.012 | [16] 0.032 | [17] -0.026 | [18] -0.038 | [19] 0.118 | [20] 0.036

SMARCA5 (UniProt O60264)
inactive: [1] -0.026 | [2] 0.065 | [3] 0.064 | [4] -0.026 | [5] -0.02 | [6] -0.019 | [7] 0 | [8] -0.014 | [9] 0.012 | [10] -0.021 | [11] 0.002 | [12] 0.019 | [13] 0.038 | [14] 0.003 | [15] -0.036 | [16] 0.017 | [17] -0.113 | [18] -0.057 | [19] 0.03 | [20] 0.013

SORBS1 isoform 8 (UniProt Q9BX66)
inactive: [1] -0.021 | [2] -0.033 | [3] 0.066 | [4] -0.012 | [5] -0.021 | [6] 0.007 | [7] -0.011 | [8] 0.045 | [9] -0.014 | [10] 0.003 | [11] 0.04 | [12] -0.036 | [13] -0.007 | [14] -0.034 | [15] -0.004 | [16] 0.015 | [17] -0.011 | [18] 0.028 | [19] -0.009 | [20] -0.006

SMG5 (UniProt Q9UPR3)
inactive: [1] -0.037 | [2] -0.038 | [3] 0.028 | [4] -0.008 | [5] -0.012 | [6] -0.074 | [7] -0.035 | [8] -0.004 | [9] -0.043 | [10] 0.007 | [11] -0.041 | [12] 0.048 | [13] 0.021 | [14] -0.032 | [15] -0.037 | [16] 0.071 | [17] 0.015 | [18] -0.117 | [19] 0.057 | [20] 0.024

SOAT1 (UniProt P35610)
inactive: [1] 0.06 | [2] -0.007 | [3] -0.042 | [4] 0 | [5] -0.048 | [6] 0.056 | [7] -0.058 | [8] -0.056 | [9] -0.019 | [10] 0 | [11] 0.043 | [12] 0.017 | [13] 0.151 | [14] -0.107 | [15] -0.055 | [16] -0.046 | [17] -0.022 | [18] 0.1 | [19] -0.012 | [20] 0.019
